# Results reported in PubChem BioAssay AID651640 (Broad Institute, 2012).
# The campaign covered roughly 350,000 compounds. About 6,000 (1.7%) were called active. Inconclusive results, whose numbers are uncertain, are shown with a selection of clear calls. Rule as the data show it: active = CPE inhibition above about 20% (passing the limit was not always enough); inconclusive = no clear call, values can overlap the other calls; tested in BHK-21 cells.
# Assay: protection of cells from dengue 2 killing – plate reader, single concentration, primary screen (AID 651640);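 also: 0% = median of neutral control wells and 100% = median of positive control wells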
# Conditions: DENV2-infected cells, cytopathic effect rescue, at 9.99 µM, active compounds read high
row,SMILES,CPE inhibition
1,CC1(c2nnc(-c3ccccc3)o2)CC(c2cccnc2)=NO1 (centres undefined),inconclusive: 23.2%
2,COC(=O)c1cc(OC)c(OC)c(OC)c1[N+](=O)[O-],inconclusive: 46.2%
3,O=C(CNS(=O)(=O)c1ccccc1)N/N=C/c1ccccc1[N+](=O)[O-],inconclusive: 31.6%
4,COc1cccc(-c2cn(CC[C@H]3CC[C@H](NC(=O)CC4CC4)[C@H](CO)O3)nn2)c1,inactive: -3.55%
5,O=C(Nc1ccc(O)cc1)c1ccc2c(c1)C(=O)N(Cc1ccco1)C2=O,inactive: -5.88%
6,COc1ccc2c3c(n(C)c2c1)[C@@H](CO)N(Cc1ccc(F)cc1)CC31CN(CC2CCOCC2)C1,active: 99.3%
7,COc1cccc(S(=O)(=O)N(C)C[C@H]2Oc3cc(C#CCC(C)C)ccc3S(=O)(=O)N([C@H](C)CO)C[C@H]2C)c1,inconclusive: 24.7%
8,C/C=C/c1ccc2c(c1)O[C@@H](CN(C)C(=O)NCCC)[C@H](C)CN([C@H](C)CO)S2(=O)=O,inconclusive: 38.4%
9,COc1cccc2c1C(=O)C=C(C)C2=O,inactive: -2.14%
10,COc1ccccc1-c1ccc(SCC(=O)NCCc2ccccc2)nn1,inconclusive: 23.1%
11,COc1ccc(OC)c(S(=O)(=O)Nc2ccccc2C(=O)N2CCCCC2)c1,inconclusive: 37.4%
12,CCC(=O)N1CC2(C1)CN(C(=O)CN1CCOCC1)[C@H](CO)c1c2c2ccc(OC)cc2n1C,inactive: -1.91%
13,COc1ccc(S(=O)(=O)N(C)C[C@@H]2OCc3cn(nn3)CCCC(=O)N([C@H](C)CO)C[C@H]2C)cc1,inconclusive: 26.8%
14,Cn1cc(S(=O)(=O)N2CCNCC2)cc1C(N)=O,inconclusive: 21.2%
15,CC(=O)N(C)C[C@H]1Oc2cc(C#CC3CCCC3)ccc2S(=O)(=O)N([C@H](C)CO)C[C@H]1C,inconclusive: 34.2%
16,COCC(=O)Nc1ccc2c(c1)C(=O)N(C)[C@@H]1CC[C@H](CC(=O)NCc3ccc(OC)cc3)O[C@@H]1CO2,inconclusive: 45.1%
17,COc1ccc([Si](C)(C)[C@@H]2[C@@H](CCO)O[C@]3(C(=O)N(Cc4ccc(NC(C)=O)cc4)c4ccccc43)[C@H]2C)cc1,active: 20.1%
18,C[C@@H]1CN([C@@H](C)CO)S(=O)(=O)c2ccc(C#Cc3ccncc3)cc2O[C@@H]1CN(C)C,inconclusive: 21.7%
19,O=C(C1CCOCC1)N1CC(=O)N2[C@H](CO)[C@@H](c3ccc(-c4cccnc4)cc3)[C@@H]2C1,inactive: -6.7%
20,O=C(COC(=O)c1ccco1)Nc1nnc(-c2ccccc2)o1,inconclusive: 58.6%
21,COCCNC(=S)N(CCc1c(C)[nH]c2ccc(Cl)cc12)Cc1cccs1,inactive: -3.48%
22,C[C@H]1CN([C@@H](C)CO)C(=O)Cc2cc(NC(=O)Nc3ccc(C(F)(F)F)cc3)ccc2O[C@@H]1CN(C)S(=O)(=O)c1cccs1,inactive: -17.3%

row,SMILES,CPE inhibition
1,C[C@H](CO)N1C[C@H](C)[C@H](CN(C)S(=O)(=O)c2cccs2)OCCCC[C@H](C)Oc2ccc(NC(=O)NC3CCCCC3)cc2C1=O,inactive: 11.8%
2,C[C@H](CO)N1C[C@H](C)[C@H](CN(C)C(=O)c2ccc(F)cc2)Oc2ncc(C#CCN(C)C)cc2C1=O,active: 35%
3,O=C(C[C@@H]1C[C@H]2c3cc(NC(=O)c4ccc5c(c4)OCO5)ccc3O[C@H]2[C@@H](CO)O1)NCc1cccc(F)c1,inconclusive: 23.1%
4,COc1cccc(N2CCN(S(=O)(=O)c3ccc4ccccc4c3)CC2)c1,inconclusive: 21.5%
5,Cc1ccc(-c2csc3nc(C(C)C)oc(=O)c23)c(C)c1,inconclusive: 36.1%
6,O=C(C[C@@H]1C=C[C@H](NC(=O)c2ccc(F)cc2)[C@H](CO)O1)NCCc1ccncc1,inactive: 15.2%
7,C[C@H](CO)N1C[C@H](C)[C@H](CN(C)Cc2ccc(-c3ccccc3)cc2)Oc2c(NC(=O)Nc3ccc4c(c3)OCO4)cccc2C1=O,active: 20.8%
8,CC[C@]12c3[nH]c4ccc(OC)cc4c3CCN1C(=O)C(CC(=O)NCCN1CCOCC1)C[C@@H]2C(=O)N1CCN(C(=O)C2CC2)CC1 (some centres undefined),inconclusive: 27%
9,COCC(=O)N1C[C@H]2[C@@H](c3ccccc31)[C@H](CO)N2C(=O)C1CCOCC1,inconclusive: 81.3%
10,CCOc1ccc(S(=O)(=O)N2CCC(C(=O)NCC(=O)Nc3cccc(Cl)c3C)CC2)cc1,inconclusive: 21.1%
11,Cc1ccc(N(CC(=O)N2CCCCCC2)S(C)(=O)=O)cc1Cl,inactive: -5.12%
12,OCC[C@@H]1C[C@H](O)[C@@H](O)[C@@]2(Cc3ccccc3CCO2)O1,inconclusive: 85.6%
13,COc1cc(CNC[C@H]2O[C@@H](n3cc(C)c(=O)[nH]c3=O)C[C@@H]2O)ccc1OCc1cccc(Cl)c1,inconclusive: 21.9%
14,C[C@H](CO)N1C[C@H](C)[C@@H](CN(C)C(=O)Nc2ccccc2)Oc2c(NC(=O)CCCCCC(=O)Nc3ccccc3N)cccc2C1=O,inconclusive: 40.6%
15,COc1ccc2c3c([nH]c2c1)[C@@H](CO)N(Cc1cccc(Cl)c1)CC31CCN(C(C)=O)CC1,active: 30.1%
16,CC(=O)Nc1ccc(C(=O)N2CCCCC2c2cc(C(=O)NCc3ccc(F)cc3)no2)cc1 (centres undefined),inconclusive: 42.1%
17,C[C@@H]1CN([C@H](C)CO)C(=O)c2cccc(NS(=O)(=O)c3ccccc3)c2O[C@@H]1CN(C)C(=O)Nc1ccc2c(c1)OCO2,inconclusive: 42.8%
18,C[C@H]1CCCCO[C@H](CN(C)C(=O)NC2CCCCC2)[C@@H](C)CN([C@@H](C)CO)C(=O)c2cc(NC(=O)Nc3ccc(C(F)(F)F)cc3)ccc2O1,inconclusive: 32.4%
19,O=C(NCc1cccc(Cl)c1)c1ccc(-n2ccnc2)c2ccoc12,inconclusive: 46.7%
20,O=C(NC[C@H]1CC[C@@H]2[C@@H](CN2Cc2ccccc2F)O1)C1CC1,inactive: -2.32%
21,O=C(NCC(c1ccco1)N1CCN(c2ccccc2)CC1)C1CCCCC1 (centres undefined),active: 72%
22,CN(CC(=O)Nc1ccccc1Br)C(=O)c1ccccc1-c1nc2ccccc2s1,inconclusive: 20.2%

# By substructure, those above containing a CF3 group
row,SMILES,CPE inhibition
22,C[C@H]1CN([C@@H](C)CO)C(=O)Cc2cc(NC(=O)Nc3ccc(C(F)(F)F)cc3)ccc2O[C@@H]1CN(C)S(=O)(=O)c1cccs1,inactive: -17.3%
18,C[C@H]1CCCCO[C@H](CN(C)C(=O)NC2CCCCC2)[C@@H](C)CN([C@@H](C)CO)C(=O)c2cc(NC(=O)Nc3ccc(C(F)(F)F)cc3)ccc2O1,inconclusive: 32.4%
